These are yes or no findings as the source states them, for the method shown. In cells and extracts the contact can be indirect.

Protein sequences, listed by entry. Tags and fused reporters are not part of them. Residues count along the entry.
UniProt Q15116, residues 25-288: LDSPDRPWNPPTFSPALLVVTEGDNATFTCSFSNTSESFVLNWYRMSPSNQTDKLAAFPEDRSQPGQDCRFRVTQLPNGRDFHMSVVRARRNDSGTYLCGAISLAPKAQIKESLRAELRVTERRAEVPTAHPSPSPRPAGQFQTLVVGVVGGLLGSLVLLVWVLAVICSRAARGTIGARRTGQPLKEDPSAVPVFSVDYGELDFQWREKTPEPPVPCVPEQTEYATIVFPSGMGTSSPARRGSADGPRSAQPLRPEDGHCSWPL
UniProt P29351: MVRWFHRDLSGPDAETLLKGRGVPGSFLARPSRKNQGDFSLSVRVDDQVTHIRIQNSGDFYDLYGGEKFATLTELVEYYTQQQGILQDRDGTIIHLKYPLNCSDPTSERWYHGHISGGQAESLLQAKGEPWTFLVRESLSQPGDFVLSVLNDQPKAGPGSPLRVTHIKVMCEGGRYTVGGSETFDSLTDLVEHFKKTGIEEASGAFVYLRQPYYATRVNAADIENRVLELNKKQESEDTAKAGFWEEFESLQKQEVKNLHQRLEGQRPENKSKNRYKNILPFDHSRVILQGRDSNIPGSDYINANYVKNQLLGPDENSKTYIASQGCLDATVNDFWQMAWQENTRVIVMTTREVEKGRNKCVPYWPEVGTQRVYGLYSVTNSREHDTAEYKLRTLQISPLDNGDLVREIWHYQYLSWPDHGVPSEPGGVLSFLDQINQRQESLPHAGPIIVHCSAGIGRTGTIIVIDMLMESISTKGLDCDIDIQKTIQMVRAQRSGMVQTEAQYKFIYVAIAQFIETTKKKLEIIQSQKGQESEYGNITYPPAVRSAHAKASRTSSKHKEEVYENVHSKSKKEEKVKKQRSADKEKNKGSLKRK

The assay has as its target enhanced green fluorescent protein-tagged hPD-1 (human) (UniProt Q15116). Nature of the assay: co-IP; 2D12 cells expressing hPD-1-EGFP conjugated with MCC88-103-prepulsed DC-1 cells not expressing or expressing hPD-L1; lysis buffer 50 mM Tris-HCl, 50 mM NaCl, 5 mM EDTA, 1% NP-40; immunoprecipitated by anti-GFP, blotted for SHP1, SHP2.

With “SHP1 (from UniProt P29351 1-595) (enzyme)”, the binding entry is on record as “no binding”.

These data come from publication PMC10244369.
